Source: PMC12040169 (PLOS Biology, 2025)
This is one part of the list.

test system: T1, CTL2-GFP (C. trachomatis L2/434/Bu, GFP-expressing); design: species or system HeLa; Intracellular C. trachomatis growth in HeLa cells, bulk GFP fluorescence relative to DMSO; settings: bulk GFP, single well; 28.5 h, 10 µM; inhibitor
T1 construct: L2/434/Bu, GFP-expressing

| Structure (SMILES) | % of control remaining |
| --- | --- |
| NCCNC(=O)c1ccc(-c2cccc(C(F)(F)F)c2)o1 [CBK115927C] | 150.226% |
| Cn1cnnc1SCCNC(=O)N1CCCN(Cc2cccs2)CC1 [CBK307485] | 115.024% |
| CC[C@H](C)[C@H](NC(=O)C1CCN(S(=O)(=O)c2ccc(Cl)c(C(F)(F)F)c2)CC1)C(=O)O [CBK297117] | 129.674% |
| NC(=O)c1cccc(-n2cc(-c3ccsc3)nn2)c1 [CBK113076] | 131.145% |
| COc1ccc(C(=O)N2CCC3(CCN(C(=O)Cc4cc(C)no4)C3)C2)cc1OC (stereo not shown) [CBK131784] | 116.595% |
| c1csc(C2NN=C3C4CCN(CC4)C32)c1 (stereo not shown) [CBK021915] | 102.66% |
| CCCCN(C)c1c(C)nc2c(OCC3CCCCO3)cccn12 (stereo not shown) [CBK147180] | 109.449% |
| c1ccc(OCCOc2cccnc2N2CCNCC2)cc1 [CBK200000C] | 119.305% |
| CN(Cc1cccc2ncccc12)C(=O)c1cc(C2CC2)nn1C [CBK282537] | 121.06% |
| COc1ccc(C(=O)Nc2ccccc2OC2CCNCC2)cc1 [CBK050282T] | 129.857% |
| CC(=O)N1N=C(COc2ccc(C)cc2)OC1c1ccc(Br)cc1 (stereo not shown) [CBK294396] | 135.002% |
| CC1CN(C(=O)NC2CC2)C(C)CN1CCCC(c1ccc(F)cc1)c1ccc(F)cc1 (stereo not shown) [CBK024927C] | 106.416% |
| O=C(NCCc1cccs1)Nc1cccc(CN2CCCCC2)c1 [CBK306882] | 61.1236% |
| O=C(c1cccc(C(F)(F)F)c1)N1CCCCCC1 [CBK074291] | 179.018% |
| C/C(=N\NS(=O)(=O)c1ccc(C)cc1)C(C)(C)CC(=O)O [CBK263601] | 106.834% |
| Cc1nn2c(CN(C(=O)COc3ccccc3)c3ccccc3)nnc2c2ccccc12 [CBK268036] | 117.506% |
| Oc1cccc(-c2nccnc2NCc2cccs2)c1 [CBK037343] | 121.299% |
| Cc1ccc(C(O)CN2CCC(O)(c3ccc(F)cc3)CC2)cc1 (stereo not shown) [CBK283309] | 135.35% |
| CCCNc1nc(Cl)nc(NC(C)(C)C)n1 [CBK091674] | 125.5% |
| Cc1ccc(-n2c(SCC(=O)Nc3sc4c(c3C#N)CCCC4)nnc2-c2ccccc2O)c(C)c1 [CBK268692] | 139.963% |
| O=C(NCc1ccccc1)c1ccnc2ccccc12 [CBK200191] | 108.443% |
| CS(=O)(=O)c1ccc(CN2C[C@@H]3OCC(=O)N(c4ccccc4)[C@@H]3C2)cc1 [CBK289237] | 120.244% |
| Oc1ccccc1/C=N/CC(O)C/N=C/c1ccccc1O [CBK261112] | 110.941% |
| O=C(NCCN1CCOCC1)c1cc(-c2ccc(Cl)cc2Cl)nc2ccccc12 [CBK265379] | 124.372% |
| COC(=O)c1c(NC(=S)NNC(=O)c2nn(C)c(C)c2Br)sc2c1CCC(C)C2 (stereo not shown) [CBK267052] | 130.968% |
| Cc1cccc(C)c1NC(=O)CN(Cc1ccccc1)Cc1cc2ccc(C)c(C)c2[nH]c1=O [CBK122696T] | 113.17% |
| O=C(CN1CCCCC1)NN(Cc1ccccc1)c1ccccc1 [CBK261521G] | 118.72% |

| Structure (SMILES) | % of control remaining |
| --- | --- |
| Cc1ccn(CCNC(=O)c2cc3ccc(F)cc3[nH]2)n1 [CBK283209] | 115.734% |
| CSc1cc(-c2ccc(Cl)cc2)c(C(=O)O)s1 [CBK126740] | 86.9006% |
| O=C(Cn1cnc2c(Cl)cc(Cl)cc2c1=O)N1CCCCCC1 [CBK305874] | 123.943% |
| CN(Cc1ccccc1)S(=O)(=O)c1ccc2c(c1)n(C)c(=O)n2C [CBK266644] | 135.664% |
| CSCCCNC(=O)c1ccccc1Nc1cccc(C(F)(F)F)c1 [CBK149551] | 48.1867% |
| OC[C@H]1CCCN1c1nc(Br)cn2c(-c3ccccn3)cnc12 [CBK094394] | 125.708% |
| CC(C)(C)c1ccnc(N[C@H]2CO[C@H]3[C@@H]2OC[C@@H]3NS(=O)(=O)Cc2ccccc2)n1 [CBK289521] | 127.908% |
| CN1CCN(c2nc(-c3ccccc3)cc(-c3ccc(Br)cc3)n2)CC1 [CBK262774] | 107.411% |
| CC1(C)CC(=O)C2=C(C1)c1onc(N)c1C2Cc1ccccc1 (stereo not shown) [CBK269206] | 88.1353% |
| O=c1c(-c2ccco2)[n+]([O-])c2ccccc2n1OCc1ccccn1 [CBK266570] | 153.624% |
| Cc1nc2c(c(=O)[nH]1)CCN(Cc1[nH]c3ccc(F)cc3c1C)C2 [CBK283996] | 112.602% |
| O=c1cc(N2CCCC2)cnn1Cc1cscn1 [CBK304635] | 124.487% |
| CCCOc1ccc(O)cc1 [CBK122802] | 166.573% |
| CSc1nc2ccc3nc(NC(C)=O)sc3c2s1 [CBK287567] | 135.429% |
| Sc1nnc(COc2ccccc2)n1/N=C/c1ccncc1 [CBK265360] | 121.907% |
| N=C1NC(=O)/C(=C/c2cccc(OCc3cccc4ccccc34)c2)S1 [CBK263610] | 100% |
| O=C(c1cc(S(=O)(=O)NCc2ccco2)c(Cl)cc1Cl)N1CCCC1 [CBK306076] | 89.5509% |
| Nc1ncnc2c1nc1n2[C@@H]2O[C@@H]([C@H](O)C2O)[C@H]1O (stereo partly shown) [CBK201305] | 146.572% |
| O=c1[nH]c(=O)c2cc(S(=O)(=O)N3CCCC(c4ccccc4)C3)ccc2[nH]1 (stereo not shown) [CBK286381] | 114.439% |
| CC1(c2ccccc2)CC(C)(C)N(C(=O)CSc2nc3ccccc3o2)c2ccccc21 (stereo not shown) [CBK262466] | 106.226% |
| Fc1cccc(N2CCN(Cc3ccccc3)CC2)n1 [CBK000144] | 123.291% |
| CC1=CC(C)(C)N(CC(=O)c2ccc([N+](=O)[O-])cc2)c2c(C)cccc21 [CBK261652] | 98.3796% |
| NS(=O)(=O)c1ccc(CCNC(=O)c2ccc(-c3ccccc3)nc2NCCc2ccccn2)cc1 [CBK076616] | 206.58% |
| Nc1nnc(C(=O)c2cc(Br)ccc2N)s1 [CBK009811] | 127.748% |
| COc1cc(C(=O)Nc2ncccc2OCCCC#N)ccc1C [CBK304568] | 117.975% |
| Cc1ccc(N(Cc2ccco2)C(=O)c2cccc(S(=O)(=O)N(C)C)c2)cc1 [CBK267578] | 133.77% |
| O=C(CN1C(=O)N2CCN=C2c2ccccc21)N1CCCC1 [CBK283945] | 150.619% |

2 compounds drawn at random from those above, as already listed:

| Structure (SMILES) | % of control remaining |
| --- | --- |
| COc1cc(C(=O)Nc2ncccc2OCCCC#N)ccc1C [CBK304568] | 117.975% |
| Cc1nc2c(c(=O)[nH]1)CCN(Cc1[nH]c3ccc(F)cc3c1C)C2 [CBK283996] | 112.602% |

Later entries.

| Structure (SMILES) | % of control remaining |
| --- | --- |
| COc1ccc(-n2nc3ccc(NC(=O)c4sc5ccccc5c4Cl)cc3n2)cc1Cl [CBK264633] | 130.767% |
| O=C(NCC(c1ccco1)N1CCCC1)N1CCc2ccccc2C1 (stereo not shown) [CBK304392] | 119.553% |
| CN1CCN(c2snnc2CO)CC1 [CBK025626] | 135.245% |
| C=CCn1c(SCC(=O)N2CCN(c3ccccc3)CC2)nnc1-c1ccc(N)cc1 [CBK267956] | 120.212% |
| CN(C)CCN1C(=O)C(O)=C(C(=O)c2ccc(S(=O)(=O)N3CCOCC3)cc2)C1c1ccccc1 (stereo not shown) [CBK264668] | 100% |
| CN(C(=O)CN1CCN(c2cc(-c3ccsc3)ncn2)CC1)c1ccccc1 [CBK091129] | 216.202% |
| O=C(N/N=C/c1cc(Br)c(Br)o1)c1cccc(F)c1 [CBK261688] | 69.215% |
| CCn1c(=O)n(CC(=O)N2C(C)CCCC2C)c2cccnc21 (stereo not shown) [CBK283825] | 120.765% |
| CC(C)Nc1cncc(OCc2ccc(Cl)c(Cl)c2)n1 [CBK115653] | 113.602% |
| COC(=O)CNC(=O)c1cc(-c2ccc(C)s2)nc2c1cnn2C(C)C [CBK305040] | 114.997% |
| Fc1cc(Cl)ccc1NC(=S)NCCN1CCOCC1 [CBK268441] | 128.947% |
| COc1cc(C=C2C(=O)OC(C)(C(C)(C)C)OC2=O)cc(Br)c1OC (stereo not shown) [CBK028893] | 96.918% |
| CC(C)CCNCc1ccc(-c2cn(CC(=O)NCc3ccc(C(F)(F)F)cc3)cn2)cc1 [CBK165976] | 127.692% |
| CCC(C)(C)c1ccc(S(=O)(=O)N2CCN(Cc3cccc4cccnc34)CC2)cc1 [CBK062830] | 77.3576% |
| c1coc(CNc2cncc(-c3cccc4ccccc34)n2)c1 [CBK065573] | 76.8314% |
| O=C(Nc1ccc2oc(-c3cccnc3)nc2c1)c1cc([N+](=O)[O-])ccc1N1CCOCC1 [CBK268674] | 135.684% |
| COc1ccc(C(C)C)cc1-c1cnc(N)c(NC2CCCCC2)n1 [CBK063618] | 113.077% |
| COc1ccc(Cl)cc1NC(=O)CN(C1CCCCC1)S(=O)(=O)c1ccccc1 [CBK265159] | 94.5598% |
| Cc1ccc(/C=C/C(=O)O)cc1S(=O)(=O)NCC1CCCO1 (stereo not shown) [CBK287267] | 151.168% |
| COCCCn1c(=O)[nH]c2ncc(-c3cccc(OC)c3)nc21 [CBK064519] | 80.8112% |
| CCOC(=O)COc1ccc(/C=C2/SC(=S)N(c3cccc(C(=O)O)c3)C2=O)cc1 [CBK265632] | 100% |
| CC1CCc2n[nH]c(C(=O)NC3CN4CCC3CC4)c2C1 (stereo not shown) [CBK283193] | 117.598% |
| CCN(C(=O)c1cnccn1)C(CC1CCCCC1)c1ccccc1 (stereo not shown) [CBK061638] | 105.847% |
| N#Cc1sc(N)c2ccc(-c3ccncc3)nc12 [CBK019761] | 107.449% |
| Cc1noc(C)c1C(=O)N(C)CC(=O)Nc1ccc(Cl)c(C(F)(F)F)c1 [CBK295363] | 161.486% |

Some of the entries so far, comma-delimited:
Structure (SMILES),% of control remaining
O=C(NCCN1CCOCC1)c1cc(-c2ccc(Cl)cc2Cl)nc2ccccc12 [CBK265379],124.372%
COC(=O)c1c(NC(=S)NNC(=O)c2nn(C)c(C)c2Br)sc2c1CCC(C)C2 (stereo not shown) [CBK267052],130.968%
